Laboratory results reported in patent US20240150824 (published 2024).

Experiment: general procedure: Fmoc solid-phase peptide synthesis; ChemMatrix Rink amide resin; HATU with NMM
Settings: conjugation step

With Hex-4Npa-(K′2-P)10—K4—NH2 the conjugation yield was 20-40%.
